No constants are given. Whether binding was seen depends on the method and setting. For some of these results: A result given as binding can be weak or reduced; the word gives no strength. For some of these results: Binding seen in cells or lysates may run through a third protein. For some of these results: Sequences can lack the tags named with a protein.
Experiments:
[1] = target: T1, OsSERK2, bait from pBT3-STE (Oryza sativa japonica cv. Zhonghua 11 (ZH11)) (UniProt Q7XV05); test: two-hybrid; split-ubiquitin membrane yeast two-hybrid (DUALmembrane system): pBT3-STE-OsSERK/SERLs and pPR3-N-COG1 in yeast strain NMY51
T1 sequence: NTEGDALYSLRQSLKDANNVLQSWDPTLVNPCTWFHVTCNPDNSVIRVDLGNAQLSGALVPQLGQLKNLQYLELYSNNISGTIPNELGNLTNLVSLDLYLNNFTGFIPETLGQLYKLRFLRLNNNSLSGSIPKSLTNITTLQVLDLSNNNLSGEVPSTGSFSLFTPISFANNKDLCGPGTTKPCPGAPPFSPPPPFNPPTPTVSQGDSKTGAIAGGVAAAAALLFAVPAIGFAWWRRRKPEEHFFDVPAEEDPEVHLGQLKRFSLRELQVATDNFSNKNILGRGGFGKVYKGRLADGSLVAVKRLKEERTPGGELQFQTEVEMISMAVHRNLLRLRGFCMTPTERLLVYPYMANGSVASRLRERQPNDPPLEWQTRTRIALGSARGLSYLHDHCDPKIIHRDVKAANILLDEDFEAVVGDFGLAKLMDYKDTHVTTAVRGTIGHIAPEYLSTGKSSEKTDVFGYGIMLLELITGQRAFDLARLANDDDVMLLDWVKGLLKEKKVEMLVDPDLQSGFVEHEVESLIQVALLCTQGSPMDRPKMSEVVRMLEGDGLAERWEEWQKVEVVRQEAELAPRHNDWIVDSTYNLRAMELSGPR

[2] = target: T2, OsSERK1, bait from pBT3-STE (Oryza sativa japonica cv. Zhonghua 11 (ZH11)) (UniProt Q6Z4U4); test: as above
T2 sequence: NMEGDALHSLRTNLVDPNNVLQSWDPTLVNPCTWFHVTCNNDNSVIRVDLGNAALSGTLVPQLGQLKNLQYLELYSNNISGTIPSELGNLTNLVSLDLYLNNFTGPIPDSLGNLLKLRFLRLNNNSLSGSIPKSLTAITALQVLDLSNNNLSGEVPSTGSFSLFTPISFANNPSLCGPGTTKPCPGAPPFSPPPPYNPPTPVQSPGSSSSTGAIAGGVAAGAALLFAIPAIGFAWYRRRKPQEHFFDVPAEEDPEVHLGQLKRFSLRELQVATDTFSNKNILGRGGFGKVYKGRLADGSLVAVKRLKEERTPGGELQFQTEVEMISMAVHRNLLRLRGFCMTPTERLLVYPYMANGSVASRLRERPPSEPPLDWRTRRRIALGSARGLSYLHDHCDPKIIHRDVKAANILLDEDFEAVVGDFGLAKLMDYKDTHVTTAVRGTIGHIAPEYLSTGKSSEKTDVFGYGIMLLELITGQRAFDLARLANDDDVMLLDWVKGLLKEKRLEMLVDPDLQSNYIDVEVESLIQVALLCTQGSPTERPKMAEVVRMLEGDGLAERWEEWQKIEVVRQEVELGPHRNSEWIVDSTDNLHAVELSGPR

[3] = target: T3, OsSERK1-cCFP (Oryza sativa japonica cv. Zhonghua 11 (ZH11)) (UniProt Q6Z4U4); test: split reporter; BiFC in rice protoplasts, nVenus and cCFP fusions co-expressed, YFP fluorescence by confocal microscopy (Leica TCS SP5); in one experiment the protoplasts were kept at 28 °C or 4 °C for 24 h and the intensity measured by Image J
T3 sequence: T2 sequence

[4] = target: T4, OsSERK2-cCFP (Oryza sativa japonica cv. Zhonghua 11 (ZH11)) (UniProt Q7XV05); test: as above
T4 sequence: T1 sequence

Substance | binding [1] | binding [2] | binding [3] | binding [4]
COG1 (Chilling-tolerance in Gengdao/japonica rice 1), prey from pPR3-N-COG1 (receptor) | binds | binds |  | 
COG1-nVenus (receptor) |  |  | no binding | no binding
